Results deposited as PubChem BioAssay AID1259308 (NCATS, 2017).

Purpose: 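Genes whose loss raises luciferase production in HEK293 cells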 (primary screen)
System: human HEK293 embryonic kidney cells stably expressing firefly luciferase (HEK-CMV-Luc2-Hygro)
Reagents: single siRNA against human genes, 0.8 pmol siRNA per well
Duration: 72 h
Measured: 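Luciferase light (ONE-Glo) measured on one replicate plate set and viability (CellTiter-Glo) on the other, scaled to a negative control siRNA, with robust z-scores and luciferase per cell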
Scale: total luciferase, z-score and total luciferase, % of control: higher = more reporter protein produced
Rule for the call: 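An siRNA counts as active if its total luciferase robust z-score exceeds 3; genes with two or more such siRNAs out of three were retested with fresh siRNAs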
Meaning of the calls: active = raised luciferase; inactive = no rise
This is an unselected part of about 59,000 deposited reagents. About 1,510 of them (2.6%) were called active. 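Calls use total luciferase alone and ignore viability, so some active siRNAs may act by altering cell number.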 Reagents against one gene are numbered here. Further read-outs or replicates are left out here.

| Gene | siRNA no. | total luciferase, z-score | total luciferase, % of control | Outcome |
| --- | --- | --- | --- | --- |
| CLCA2 (chloride channel accessory 2) | 1 | -0.385 | 74.2 | inactive |
| CLCA2 (chloride channel accessory 2) | 2 | -1.09 | 60.1 | inactive |
| CLCA2 (chloride channel accessory 2) | 3 | -1.08 | 60.4 | inactive |
| CDIP1 (cell death inducing p53 target 1) | 1 | -1.22 | 57.6 | inactive |
| CDIP1 (cell death inducing p53 target 1) | 2 | 0.311 | 88.1 | inactive |
| CDIP1 (cell death inducing p53 target 1) | 3 | -0.518 | 71.6 | inactive |
| EDC3 (enhancer of mRNA decapping 3) | 1 | -0.476 | 72.4 | inactive |
| EDC3 (enhancer of mRNA decapping 3) | 2 | -1.84 | 45.3 | inactive |
| EDC3 (enhancer of mRNA decapping 3) | 3 | -0.154 | 78.8 | inactive |
| EPB41L5 (erythrocyte membrane protein band 4.1 like 5) | 1 | 3.07 | 143 | active |
| EPB41L5 (erythrocyte membrane protein band 4.1 like 5) | 2 | -0.105 | 79.8 | inactive |
| EPB41L5 (erythrocyte membrane protein band 4.1 like 5) | 3 | 0.549 | 92.8 | inactive |
| PRAMEF7 (PRAME family member 7) | 1 | 1.03 | 102 | inactive |
| PRAMEF7 (PRAME family member 7) | 2 | 0.188 | 85.6 | inactive |
| PRAMEF7 (PRAME family member 7) | 3 | 1.34 | 109 | inactive |
| ANKRD9 (ankyrin repeat domain 9) | 1 | -0.248 | 76.9 | inactive |
| ANKRD9 (ankyrin repeat domain 9) | 2 | 1.7 | 116 | inactive |
| ANKRD9 (ankyrin repeat domain 9) | 3 | -0.491 | 72.1 | inactive |
| VILL (villin like) | 1 | 0.427 | 90.4 | inactive |
| VILL (villin like) | 2 | 0.34 | 88.6 | inactive |
| VILL (villin like) | 3 | 0.458 | 91 | inactive |
| GPD2 (glycerol-3-phosphate dehydrogenase 2) | 1 | -0.0393 | 81.1 | inactive |
| GPD2 (glycerol-3-phosphate dehydrogenase 2) | 2 | 1.16 | 105 | inactive |
| GPD2 (glycerol-3-phosphate dehydrogenase 2) | 3 | 0.938 | 101 | inactive |

Records above marked active, once more:
| Gene | siRNA no. | total luciferase, z-score | total luciferase, % of control | Outcome |
| --- | --- | --- | --- | --- |
| EPB41L5 (erythrocyte membrane protein band 4.1 like 5) | 1 | 3.07 | 143 | active |
